No constants are given. Whether binding was seen depends on the method and setting. Some results given as binding are weak or reduced against the parent protein; the word gives no strength.
Legend:
[1] = target: non-hemolytic variant of pneumolysin (Ply-NH; allele 5) of serotype 1 ST306 (Streptococcus pneumoniae serotype 1 ST306 strain 01-1956) (UniProt P0C2J9); test: SDS-PAGE of unboiled samples with immunoblot (SDS-resistant oligomers); purified Ply variant without cells, 5% SDS-PAGE, anti-Ply blot; both purified
[2] = target: non-hemolytic variant of pneumolysin (Ply-NH; allele 5) of serotype 1 ST306 (Streptococcus pneumoniae serotype 1 ST306 strain 01-1956) (UniProt P0C2J9); test: SDS-PAGE of unboiled samples with immunoblot (SDS-resistant oligomers); 10^6 A549 cells incubated with 0.5 ug Ply variant in PBS for 30 min at 37°C, 5% SDS-PAGE without boiling, anti-Ply blot; oligomers on cell membranes; both purified
[3] = target: non-hemolytic variant of pneumolysin (Ply-NH; allele 5) of serotype 1 ST306 (Streptococcus pneumoniae serotype 1 ST306 strain 01-1956) (UniProt P0C2J9); test: negative-stain transmission electron microscopy; purified Ply (0.5 uM) incubated with cholesterol:POPC (50 mol% each) liposomes (2 mg/ml) at 37°C for 30 min, stained with 2% phosphotungstic acid; oligomeric rings on membranes; both purified

The chains behind the UniProt entries cited, without tags or fusion partners. Where a name states a change or a piece, a line headed by the entry shows the natural chain unless it says otherwise.
UniProt P0C2J9, whole entry, looked up, stated change not applied: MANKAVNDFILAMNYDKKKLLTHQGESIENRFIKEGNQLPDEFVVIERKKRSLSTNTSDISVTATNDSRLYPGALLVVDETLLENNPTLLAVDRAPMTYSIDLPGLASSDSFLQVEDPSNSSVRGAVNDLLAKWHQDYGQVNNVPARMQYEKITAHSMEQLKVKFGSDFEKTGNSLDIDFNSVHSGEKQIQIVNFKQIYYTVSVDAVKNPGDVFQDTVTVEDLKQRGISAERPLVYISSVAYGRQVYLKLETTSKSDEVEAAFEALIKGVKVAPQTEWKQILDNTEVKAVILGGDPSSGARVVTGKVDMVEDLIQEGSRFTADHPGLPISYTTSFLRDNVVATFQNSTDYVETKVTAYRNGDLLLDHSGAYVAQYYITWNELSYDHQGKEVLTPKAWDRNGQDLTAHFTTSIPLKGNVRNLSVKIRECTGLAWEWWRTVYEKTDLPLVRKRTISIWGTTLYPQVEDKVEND

## non-hemolytic variant of pneumolysin (Ply-NH; allele 5) of serotype 1 ST306 (from UniProt P0C2J9 1-471)
[1]
  binding: no binding (condition: without cells)
[2]
  binding: binds
[3]
  binding: binds

— paper PMC7717573
